PubChem BioAssay AID504808 – Drosophila RNAi Screening Center, 2011
The deposit covers about 21,000 reagents; this is an unselected part of those with a known target gene and a result. Of all reagents, 18 (0.084%) were called active. 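Raw counts without plate normalisation, one of two replicates; the ratio scores behind the calls were not deposited.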 A number with no mark means an inactive call. Reagents against one gene are numbered here. Not given: the amount of reagent, the time to read-out.

Assay: 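Fly genes required to hold E2F transcription in check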 (primary screen)
Cells: Drosophila S2 cells
Knock-down reagent: long dsRNA against Drosophila genes
Detection: 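Dual luciferase plate measurements; E2F-specific signal taken as firefly over Renilla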
Scale: E2F firefly: higher = more E2F reporter activity; Renilla normaliser: higher = more normaliser reporter signal
Hit rule: 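Called active if the normalised E2F reporter went up by over 50%; the cutoff is arbitrary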

Against CG4615 #1 the deposit lists E2F firefly, rep 1 = 87810; Renilla normaliser, rep 1 = 2331.
For CG4615 #2, the values are E2F firefly, rep 1 = 7040; Renilla normaliser, rep 1 = 920.
Knock-down of Gprk2 (G protein-coupled receptor kinase 2) came out at: E2F firefly, rep 1 = 1197; Renilla normaliser, rep 1 = 856.
For CG13004 the deposit lists E2F firefly, rep 1 = 1.65e5; Renilla normaliser, rep 1 = 6332.
For CG32750, the entry reads E2F firefly, rep 1 = 1.10e5; Renilla normaliser, rep 1 = 5013.
CG3719 gave E2F firefly, rep 1 = 46196; Renilla normaliser, rep 1 = 3419.
CG10839 gave E2F firefly, rep 1 = 1.23e5; Renilla normaliser, rep 1 = 4433.
Mtap (Methylthioadenosine phosphorylase) scored E2F firefly, rep 1 = 74790; Renilla normaliser, rep 1 = 3616.
Silencing of Mics1 (Mitochondrial morphology and cristae structure 1) came out at: E2F firefly, rep 1 = 1.45e5; Renilla normaliser, rep 1 = 6197.
Depletion of CNT2 (Concentrative nucleoside transporter 2) came out at: E2F firefly, rep 1 = 3508; Renilla normaliser, rep 1 = 55.
Gp150 scored E2F firefly, rep 1 = 99120; Renilla normaliser, rep 1 = 4631.
Depletion of PK2-R2 (Pyrokinin 2 receptor 2) came out at: E2F firefly, rep 1 = 1.20e5; Renilla normaliser, rep 1 = 5689.
Against CG17917 the deposit lists E2F firefly, rep 1 = 1.25e5; Renilla normaliser, rep 1 = 6353.
Against DCTN1-p150 (Dynactin 1, p150 subunit), the values are E2F firefly, rep 1 = 80567; Renilla normaliser, rep 1 = 3462.
For CG14658, the values are E2F firefly, rep 1 = 1.08e5; Renilla normaliser, rep 1 = 5947.
Depletion of Tes (Testin) came out at: E2F firefly, rep 1 = 1.35e5; Renilla normaliser, rep 1 = 5806.
Silencing of CG3706 gave: E2F firefly, rep 1 = 1.26e5; Renilla normaliser, rep 1 = 6088.
For pths (porthos), the values are E2F firefly, rep 1 = 86783; Renilla normaliser, rep 1 = 3949.
CG13390 showed E2F firefly, rep 1 = 1.47e5; Renilla normaliser, rep 1 = 5974.
CG40341 (retired record) #1 showed E2F firefly, rep 1 = 1.27e5; Renilla normaliser, rep 1 = 4704.
CG40341 (retired record) #2 scored E2F firefly, rep 1 = 1.21e5; Renilla normaliser, rep 1 = 4532.
Depletion of CG30001 gave: E2F firefly, rep 1 = 1.47e5; Renilla normaliser, rep 1 = 6812.
CG2246 gave E2F firefly, rep 1 = 1961; Renilla normaliser, rep 1 = 832.
Acbp5 (Acyl-CoA binding protein 5) scored E2F firefly, rep 1 = 1.02e5; Renilla normaliser, rep 1 = 4469.
Against CG14088, the entry reads E2F firefly, rep 1 = 1.25e5; Renilla normaliser, rep 1 = 5788.
Against Clp (Clipper), the entry reads E2F firefly, rep 1 = 1.84e5; Renilla normaliser, rep 1 = 5835.
CG9993 scored E2F firefly, rep 1 = 97485; Renilla normaliser, rep 1 = 4065.
Silencing of CG12502 came out at: E2F firefly, rep 1 = 90264; Renilla normaliser, rep 1 = 3759.
Cyp6a8 (Cytochrome P450 6a8) scored E2F firefly, rep 1 = 3007; Renilla normaliser, rep 1 = 187.
hbn (homeobrain) #1 gave E2F firefly, rep 1 = 94056; Renilla normaliser, rep 1 = 3759.
After knock-down of hbn (homeobrain) #2, the record shows E2F firefly, rep 1 = 1.12e5; Renilla normaliser, rep 1 = 4458.
Knock-down of hbn (homeobrain) #3 resulted in: E2F firefly, rep 1 = 99374; Renilla normaliser, rep 1 = 3827.
With knock-down of Trax (Translin associated factor X), the record shows E2F firefly, rep 1 = 88738; Renilla normaliser, rep 1 = 3522.
Oseg1 (Outer segment 1) gave E2F firefly, rep 1 = 73343; Renilla normaliser, rep 1 = 3550.
With knock-down of CG11248 the results were E2F firefly, rep 1 = 68225; Renilla normaliser, rep 1 = 3685.
Depletion of gammaTub23C (gamma-Tubulin at 23C) gave: E2F firefly, rep 1 = 83028; Renilla normaliser, rep 1 = 3501.
